Where a name gives a salt, the structure may show the parent alone. Read-outs that look alike come from different tables or passages of the source. The campaign covered roughly 3,300 compounds. About 60 (2%) showed an effect of 50% or more. The list shows a part of the results.
System: HCoV-OC43
Parameters: species or system RD; HTS, protection from HCoV-OC43 induced cell death, luminescent cell viability (CellCounting-Lite 2.0), inhibition rate
Conditions: 24 h post infection, 1 h compound pre-incubation, 10 µM, inhibitor

CC1(C)[C@@H](O)CC[C@]2(C)[C@H]3C(=O)C=C4[C@@H]5C[C@@](C)(C(=O)O)CC[C@]5(C)CC[C@@]4(C)[C@]3(C)CC[C@@H]12 [18β-Glycyrrhetinic acid]
OC43 Inhibition rate: 0.1%

CC1=C(O)C(=O)C(C)O1 (stereo not drawn) [Furaneol]
OC43 Inhibition rate: 0.6%

NCCS [Cysteamine (hydrochloride)]
OC43 Inhibition rate: -0.2%

O=c1oc2cc(O)ccc2c2ccccc12 [Urolithin B]
OC43 Inhibition rate: 3.9%

O=C(/C=C\c1ccc(O)c(O)c1)N[C@@H](Cc1ccc(O)c(O)c1)C(=O)O [Clovamide]
OC43 Inhibition rate: -1.1%

O=c1cc(-c2ccc(O)cc2)oc2cc(O)c([C@@H]3O[C@H](CO)[C@@H](O)[C@H](O)[C@H]3O[C@@H]3OC[C@H](O)[C@H](O)[C@H]3O)c(O)c12 [Isovitexin 2''-O-arabinoside]
OC43 Inhibition rate: -0.5%

Oc1cccnc1 [3-Hydroxypyridine]
OC43 Inhibition rate: 2.1%

COc1c2ccoc2cc2oc(C)cc(=O)c12 [Visnagin]
OC43 Inhibition rate: 1.4%

c1c2c(cc3c1OCO3)-c1cc3ccc4c(c3c[n+]1CC2)OCO4 [Coptisine (chloride)]
OC43 Inhibition rate (OC43 Inhibition rate, 24 h): 3.2%

CCc1ccc(C=O)cc1 [4-Ethylbenzaldehyde]
OC43 Inhibition rate: 0.5%

C[C@@H]1O[C@@H](OC[C@H]2O[C@@H](OCCc3ccc(O)c(O)c3)[C@H](O)[C@@H](OC(=O)/C=C/c3ccc(O)c(O)c3)[C@@H]2O)[C@H](O)[C@H](O)[C@H]1O [Forsythoside I]
OC43 Inhibition rate (OC43 Inhibition rate, 24 h): -1.6%

CC(=O)OC(C)(C)C1CC=C(C)CC1 (stereo not drawn) [α-Terpinyl acetate]
OC43 Inhibition rate: -0.5%

C=C1C(=O)O[C@@H]2[C@H]3C(CO)=CC(=O)C3=C(C)C[C@H](OC(=O)Cc3ccc(O)cc3)[C@@H]12 [Lactupicrin]
OC43 Inhibition rate: -0.5%

NCC(=O)CCC(=O)O [5-Aminolevulinic acid (hydrochloride)]
OC43 Inhibition rate: 1.1%

C=C(C)C(=O)O[C@H]1[C@@H]2[C@H](C)C(=O)O[C@@H]2C[C@@H](C)[C@@H]2C=CC(=O)[C@]21C [Arnicolide D]
OC43 Inhibition rate: -1.2%

O=C1O[C@H]([C@@H](O)CO)C(O)=C1O [L-Ascorbic acid (sodium salt)]
OC43 Inhibition rate (OC43 Inhibition rate, 24 h): -0.4%

CC(C)=CCC[C@](C)(O[C@@H]1O[C@H](CO)[C@@H](O)[C@H](O)[C@H]1O)[C@H]1CC[C@]2(C)[C@@H]1[C@H](O)C[C@@H]1[C@@]3(C)CC[C@H](O)C(C)(C)[C@@H]3CC[C@]12C [Ginsenoside C-K]
OC43 Inhibition rate: 38.7%

CCCCCCCCCCCCCC(=O)OC[C@H](COP(=O)(O)OCCN)OC(=O)CCCCCCCCCCCCC [(2R)-3-(((2-Aminoethoxy)(hydroxy)phosphoryl)oxy)propane-1,2-diyl ditetradecanoate]
OC43 Inhibition rate: -0.3%

CCCCOC(=O)c1ccccc1C(=O)OCCCC [Dibutyl phthalate]
OC43 Inhibition rate: -1%

O=Cc1ccc(O)cc1O [2,4-Dihydroxybenzaldehyde]
OC43 Inhibition rate: 0.3%

O=C(O)/C=C/C(=O)O [Fumaric acid]
OC43 Inhibition rate: 4.1%

O=c1cc(-c2ccc(O)cc2)oc2cc(O)c([C@@H]3O[C@H](CO)[C@@H](O)[C@H](O)[C@H]3O[C@@H]3O[C@H](CO)[C@@H](O)[C@H](O)[C@H]3O)c(O)c12 [Meloside A]
OC43 Inhibition rate: -0.6%

O=C1N[C@@H](Cc2ccc(O)cc2)C(=O)N2CCC[C@@H]12 [Maculosin]
OC43 Inhibition rate: -0.1%

C[C@H](CCC(=O)O)[C@H]1CC[C@H]2[C@@H]3C[C@H](O)[C@@H]4C[C@H](O)CC[C@]4(C)[C@H]3CC[C@]12C [Hyodeoxycholic acid]
OC43 Inhibition rate: 0.4%

C/C=C/c1cc(OC)c2c(c1)[C@@H](C)[C@H](c1ccc3c(c1)OCO3)O2 [Licarin B]
OC43 Inhibition rate: 5.2%

CC(C)CCC[C@@H](C)[C@H]1CC[C@@]2(C)C3=C(CC[C@]12C)[C@@]1(C)CC[C@H](O)C(C)(C)[C@@H]1CC3 [Dihydrolanosterol]
OC43 Inhibition rate: -1.3%

C=C[C@H]1[C@H](O[C@@H]2O[C@H](CO)[C@@H](O)[C@H](O)[C@H]2O)OC=C2C(=O)OCC[C@]21O [Swertiamarin]
OC43 Inhibition rate: 5.1%

C=C(CCC=C(C)C)[C@H]1CC[C@]2(C)[C@@H]1[C@H](O)C[C@@H]1[C@@]3(C)CC[C@H](O)C(C)(C)[C@@H]3[C@@H](O[C@@H]3O[C@H](CO)[C@@H](O)[C@H](O)[C@H]3O[C@@H]3O[C@@H](C)[C@H](O)[C@@H](O)[C@H]3O)C[C@]12C [Ginsenoside Rg6]
OC43 Inhibition rate: 16.2%

CN=C(N)N [1-Methylguanidine hydrochloride]
OC43 Inhibition rate: 0.8%

C[C@H](CCC(=O)NCC(=O)O)[C@H]1CC[C@H]2[C@@H]3[C@H](O)C[C@@H]4C[C@H](O)CC[C@]4(C)[C@H]3C[C@H](O)[C@]12C [Glycocholic acid (hydrate)]
OC43 Inhibition rate (OC43 Inhibition rate, 24 h): -0.1%

COc1ccc(-c2cc(=O)c3c(O)cc(O)cc3o2)cc1-c1c(O)cc(O)c2c(=O)cc(-c3ccc(O)cc3)oc12 [Bilobetin]
OC43 Inhibition rate: 19.8%

CC1=C[C@]23C(=O)[C@H](C=C4COC(C)(C)OC4C24OC(C)(C)OC14)[C@@H]1[C@H](CC3C)C1(C)C (stereo partly drawn) [Ingenol-3,4,5,20-diacetonide]
OC43 Inhibition rate: 0.5%

CC(C)C1=CC(=O)[C@@](C)([C@H]2[C@H](O)C[C@@]3(C)[C@@H]4CC=C5[C@@H](CC[C@@H](O[C@@H]6O[C@H](CO)[C@@H](O)[C@H](O)[C@H]6O[C@@H]6O[C@@H](C)[C@H](O)[C@@H](O)[C@H]6O)C5(C)C)[C@]4(C)C(=O)C[C@]23C)O1 [Picfeltarraenin IB]
OC43 Inhibition rate: 2.2%

COC(=O)[C@@]12OC[C@]34[C@H]([C@@H](O)[C@@H]1O)[C@@]1(C)CC(=O)C(O)=C(C)[C@@H]1C[C@H]3OC(=O)[C@H](OC(C)=O)[C@@H]24 [Bruceine B]
OC43 Inhibition rate: 28.2%

CCCCCCCCCCCCCCCCCCCC(=O)O [Arachidic acid]
OC43 Inhibition rate: -0.1%

C[C@@H]1O[C@@H](O[C@H]2[C@H](Oc3cc(O)c4c(c3)O[C@H](c3ccc(O)cc3)CC4=O)O[C@H](CO)[C@@H](O)[C@@H]2O)[C@H](O)[C@H](O)[C@H]1O [Naringin]
OC43 Inhibition rate: 9.3%

Reference: paper PMC12431657, “Discovery and mechanistic insights of dibenzoylmethane as a broad spectrum inhibitor of coronavirus” (PLOS Pathogens, 2025)
